Laboratory results: the supplement of paper PMC12823440, “Inhibitors supercharge kinase turnover through native proteolytic circuits” (Nature, 2025)
Where a name gives a salt, the structure may show the parent alone. The list shows a part of the results. Hit calls seldom repeat between salt and free forms of one compound.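 Kinases were expressed as nanoluciferase fusions in K562 cells and luminescence was read every 4 h between 2 and 18 h as percent of control, DMSO set to 100% and a positive control to 0%. A time point counts as decreased when the signal drops significantly (2 sigma). The hit call is the authors' own, does not follow from the count of time points alone, and its rule is not shown.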

Chains of the proteins cited; added tags and fusions are not shown. Lines headed by an entry give the natural chain unless they say otherwise; changes in a name come on top.
UniProt P07948: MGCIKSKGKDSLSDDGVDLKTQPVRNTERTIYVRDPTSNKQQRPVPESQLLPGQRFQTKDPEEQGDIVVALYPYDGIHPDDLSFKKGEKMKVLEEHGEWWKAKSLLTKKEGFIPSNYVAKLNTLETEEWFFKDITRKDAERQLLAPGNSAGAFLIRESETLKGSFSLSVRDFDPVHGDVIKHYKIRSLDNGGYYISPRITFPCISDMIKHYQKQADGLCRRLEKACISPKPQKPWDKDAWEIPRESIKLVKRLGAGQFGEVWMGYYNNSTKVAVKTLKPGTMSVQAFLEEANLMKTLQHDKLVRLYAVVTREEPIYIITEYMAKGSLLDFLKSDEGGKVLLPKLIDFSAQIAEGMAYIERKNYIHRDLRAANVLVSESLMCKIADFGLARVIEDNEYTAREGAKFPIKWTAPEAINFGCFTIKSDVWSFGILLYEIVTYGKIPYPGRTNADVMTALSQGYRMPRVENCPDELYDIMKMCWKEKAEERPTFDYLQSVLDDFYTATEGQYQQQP
UniProt P28482, whole entry: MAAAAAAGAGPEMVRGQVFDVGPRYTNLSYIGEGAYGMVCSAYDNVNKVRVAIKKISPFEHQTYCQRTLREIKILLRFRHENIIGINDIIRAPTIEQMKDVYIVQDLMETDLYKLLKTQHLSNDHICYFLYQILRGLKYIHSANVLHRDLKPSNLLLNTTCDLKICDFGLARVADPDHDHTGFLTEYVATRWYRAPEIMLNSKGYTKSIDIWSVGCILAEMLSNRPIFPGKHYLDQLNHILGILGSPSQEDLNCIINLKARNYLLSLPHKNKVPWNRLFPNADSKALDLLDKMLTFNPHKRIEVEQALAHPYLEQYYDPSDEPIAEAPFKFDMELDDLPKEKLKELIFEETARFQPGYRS
UniProt P31152, whole entry: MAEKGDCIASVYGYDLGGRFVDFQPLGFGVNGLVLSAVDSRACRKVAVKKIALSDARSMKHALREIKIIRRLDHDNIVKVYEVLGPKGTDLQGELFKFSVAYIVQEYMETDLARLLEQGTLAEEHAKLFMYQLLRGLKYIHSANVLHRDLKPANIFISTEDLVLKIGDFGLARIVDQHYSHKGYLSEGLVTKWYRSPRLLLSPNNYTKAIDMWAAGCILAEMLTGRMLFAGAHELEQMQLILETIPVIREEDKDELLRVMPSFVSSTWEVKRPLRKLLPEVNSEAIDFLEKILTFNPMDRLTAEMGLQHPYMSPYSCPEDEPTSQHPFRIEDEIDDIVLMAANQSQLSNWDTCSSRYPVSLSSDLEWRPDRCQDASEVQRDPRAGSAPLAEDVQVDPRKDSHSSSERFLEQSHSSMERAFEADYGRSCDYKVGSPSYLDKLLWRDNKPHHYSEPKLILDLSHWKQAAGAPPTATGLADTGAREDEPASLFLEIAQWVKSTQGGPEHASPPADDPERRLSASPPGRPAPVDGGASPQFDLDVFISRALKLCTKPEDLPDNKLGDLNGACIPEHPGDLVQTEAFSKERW
UniProt P49137, whole entry, looked up: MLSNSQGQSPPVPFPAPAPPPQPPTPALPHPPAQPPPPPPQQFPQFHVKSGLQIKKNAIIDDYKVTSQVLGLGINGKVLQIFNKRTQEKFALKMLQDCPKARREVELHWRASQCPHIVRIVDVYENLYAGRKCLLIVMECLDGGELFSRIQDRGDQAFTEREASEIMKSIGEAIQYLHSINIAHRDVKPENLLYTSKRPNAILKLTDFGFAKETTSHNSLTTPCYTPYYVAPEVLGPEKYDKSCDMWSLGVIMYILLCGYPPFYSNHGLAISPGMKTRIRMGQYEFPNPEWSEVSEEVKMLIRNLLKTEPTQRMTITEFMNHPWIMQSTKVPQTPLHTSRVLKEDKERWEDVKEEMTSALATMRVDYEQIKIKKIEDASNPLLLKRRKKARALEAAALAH
UniProt Q96KB5: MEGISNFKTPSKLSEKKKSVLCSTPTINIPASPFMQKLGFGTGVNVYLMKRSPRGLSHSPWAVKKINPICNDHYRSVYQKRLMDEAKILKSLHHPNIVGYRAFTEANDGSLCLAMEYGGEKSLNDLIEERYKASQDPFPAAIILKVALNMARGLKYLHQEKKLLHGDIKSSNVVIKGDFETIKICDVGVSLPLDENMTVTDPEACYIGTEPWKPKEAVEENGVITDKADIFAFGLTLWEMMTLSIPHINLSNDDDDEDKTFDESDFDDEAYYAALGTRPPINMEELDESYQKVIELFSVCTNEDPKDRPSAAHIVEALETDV
UniProt P09619, whole entry: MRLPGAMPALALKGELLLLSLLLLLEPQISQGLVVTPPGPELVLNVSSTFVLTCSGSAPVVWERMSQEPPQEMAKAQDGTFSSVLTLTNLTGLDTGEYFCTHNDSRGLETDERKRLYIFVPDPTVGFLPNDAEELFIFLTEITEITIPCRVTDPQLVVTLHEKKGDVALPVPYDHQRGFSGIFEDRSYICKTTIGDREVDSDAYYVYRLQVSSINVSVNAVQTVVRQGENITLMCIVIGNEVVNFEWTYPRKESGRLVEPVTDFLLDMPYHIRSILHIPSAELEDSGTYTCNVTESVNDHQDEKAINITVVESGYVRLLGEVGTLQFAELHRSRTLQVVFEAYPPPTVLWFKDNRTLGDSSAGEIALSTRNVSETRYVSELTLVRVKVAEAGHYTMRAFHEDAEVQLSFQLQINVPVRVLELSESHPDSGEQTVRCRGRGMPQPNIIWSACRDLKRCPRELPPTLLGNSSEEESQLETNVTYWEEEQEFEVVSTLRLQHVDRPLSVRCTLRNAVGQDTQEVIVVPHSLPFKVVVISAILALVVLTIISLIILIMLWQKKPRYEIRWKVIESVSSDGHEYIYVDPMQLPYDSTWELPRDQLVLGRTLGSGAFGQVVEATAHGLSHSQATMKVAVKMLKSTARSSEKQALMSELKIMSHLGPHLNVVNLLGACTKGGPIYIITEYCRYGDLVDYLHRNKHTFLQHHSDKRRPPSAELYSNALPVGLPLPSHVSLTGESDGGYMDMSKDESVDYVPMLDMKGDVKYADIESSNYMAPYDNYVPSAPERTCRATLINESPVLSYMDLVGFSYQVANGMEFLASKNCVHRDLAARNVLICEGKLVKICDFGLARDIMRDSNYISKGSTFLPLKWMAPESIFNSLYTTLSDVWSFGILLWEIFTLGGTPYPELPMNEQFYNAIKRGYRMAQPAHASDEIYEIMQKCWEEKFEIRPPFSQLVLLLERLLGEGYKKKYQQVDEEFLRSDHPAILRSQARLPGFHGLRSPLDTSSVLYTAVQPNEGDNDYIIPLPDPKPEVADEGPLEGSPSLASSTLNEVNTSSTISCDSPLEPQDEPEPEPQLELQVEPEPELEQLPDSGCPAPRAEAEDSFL
UniProt O15530: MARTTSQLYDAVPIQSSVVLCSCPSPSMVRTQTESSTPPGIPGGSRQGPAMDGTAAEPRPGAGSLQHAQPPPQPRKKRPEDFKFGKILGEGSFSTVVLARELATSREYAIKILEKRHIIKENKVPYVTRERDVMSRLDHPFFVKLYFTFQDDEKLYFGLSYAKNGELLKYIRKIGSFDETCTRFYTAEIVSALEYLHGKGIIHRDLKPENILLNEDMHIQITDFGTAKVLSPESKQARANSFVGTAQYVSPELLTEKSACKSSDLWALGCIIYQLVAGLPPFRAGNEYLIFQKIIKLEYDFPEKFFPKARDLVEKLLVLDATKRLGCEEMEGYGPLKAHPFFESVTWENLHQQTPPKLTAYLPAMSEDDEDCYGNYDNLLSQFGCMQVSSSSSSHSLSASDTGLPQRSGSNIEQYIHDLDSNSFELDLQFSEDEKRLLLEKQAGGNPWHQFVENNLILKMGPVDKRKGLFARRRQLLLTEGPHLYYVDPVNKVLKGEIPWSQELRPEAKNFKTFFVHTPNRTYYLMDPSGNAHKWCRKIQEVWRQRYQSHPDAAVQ
UniProt P42356, whole entry, looked up: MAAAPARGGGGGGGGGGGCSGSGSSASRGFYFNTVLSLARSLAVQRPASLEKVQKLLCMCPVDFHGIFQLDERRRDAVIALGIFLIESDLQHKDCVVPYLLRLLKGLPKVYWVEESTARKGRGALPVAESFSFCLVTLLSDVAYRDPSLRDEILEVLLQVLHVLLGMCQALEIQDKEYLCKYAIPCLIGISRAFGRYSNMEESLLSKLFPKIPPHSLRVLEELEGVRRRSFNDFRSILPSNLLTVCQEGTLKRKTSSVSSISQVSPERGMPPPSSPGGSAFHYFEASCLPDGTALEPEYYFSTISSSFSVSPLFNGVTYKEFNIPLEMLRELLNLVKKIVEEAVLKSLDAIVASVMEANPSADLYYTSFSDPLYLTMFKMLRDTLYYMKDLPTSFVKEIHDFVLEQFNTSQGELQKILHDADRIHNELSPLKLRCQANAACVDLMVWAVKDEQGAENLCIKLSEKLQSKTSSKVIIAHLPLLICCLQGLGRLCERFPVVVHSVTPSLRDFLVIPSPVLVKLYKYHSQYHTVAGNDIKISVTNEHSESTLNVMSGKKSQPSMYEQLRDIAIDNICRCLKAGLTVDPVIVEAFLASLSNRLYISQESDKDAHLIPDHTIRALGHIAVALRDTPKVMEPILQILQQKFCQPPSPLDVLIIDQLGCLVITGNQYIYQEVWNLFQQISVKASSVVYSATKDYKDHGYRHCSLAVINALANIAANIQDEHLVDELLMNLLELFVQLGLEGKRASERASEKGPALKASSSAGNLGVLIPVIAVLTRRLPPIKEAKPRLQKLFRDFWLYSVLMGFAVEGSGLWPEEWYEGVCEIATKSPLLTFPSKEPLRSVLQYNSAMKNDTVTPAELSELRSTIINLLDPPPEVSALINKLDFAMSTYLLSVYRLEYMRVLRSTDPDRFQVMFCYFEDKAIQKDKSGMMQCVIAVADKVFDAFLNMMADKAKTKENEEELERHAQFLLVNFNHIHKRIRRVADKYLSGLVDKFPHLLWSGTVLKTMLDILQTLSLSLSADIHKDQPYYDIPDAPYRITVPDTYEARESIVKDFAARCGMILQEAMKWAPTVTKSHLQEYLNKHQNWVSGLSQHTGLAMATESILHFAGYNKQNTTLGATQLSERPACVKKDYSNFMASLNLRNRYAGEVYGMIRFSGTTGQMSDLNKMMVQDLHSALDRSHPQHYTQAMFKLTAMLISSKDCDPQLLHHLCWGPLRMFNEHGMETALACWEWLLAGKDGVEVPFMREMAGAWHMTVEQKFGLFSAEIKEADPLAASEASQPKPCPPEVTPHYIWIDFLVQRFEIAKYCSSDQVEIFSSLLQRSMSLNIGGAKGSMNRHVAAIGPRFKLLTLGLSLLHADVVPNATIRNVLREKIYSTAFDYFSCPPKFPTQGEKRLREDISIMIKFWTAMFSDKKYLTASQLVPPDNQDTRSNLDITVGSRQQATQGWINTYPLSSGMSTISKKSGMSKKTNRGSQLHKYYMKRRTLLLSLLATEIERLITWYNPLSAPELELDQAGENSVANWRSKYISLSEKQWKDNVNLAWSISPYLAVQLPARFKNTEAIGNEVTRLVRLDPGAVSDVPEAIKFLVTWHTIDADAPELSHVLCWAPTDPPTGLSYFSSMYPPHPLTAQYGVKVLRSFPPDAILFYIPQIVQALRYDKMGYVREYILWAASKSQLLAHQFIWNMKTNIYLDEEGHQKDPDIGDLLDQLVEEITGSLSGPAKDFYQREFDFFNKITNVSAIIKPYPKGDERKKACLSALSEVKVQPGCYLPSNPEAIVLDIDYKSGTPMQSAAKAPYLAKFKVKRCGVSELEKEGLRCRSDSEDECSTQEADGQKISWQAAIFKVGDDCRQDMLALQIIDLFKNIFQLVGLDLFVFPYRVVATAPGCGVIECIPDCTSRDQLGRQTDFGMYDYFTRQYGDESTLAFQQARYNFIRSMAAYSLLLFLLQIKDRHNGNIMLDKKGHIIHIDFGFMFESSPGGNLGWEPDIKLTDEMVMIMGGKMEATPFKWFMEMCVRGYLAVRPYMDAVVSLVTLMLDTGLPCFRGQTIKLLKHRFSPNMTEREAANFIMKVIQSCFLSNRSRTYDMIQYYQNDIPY
UniProt P53350, whole entry: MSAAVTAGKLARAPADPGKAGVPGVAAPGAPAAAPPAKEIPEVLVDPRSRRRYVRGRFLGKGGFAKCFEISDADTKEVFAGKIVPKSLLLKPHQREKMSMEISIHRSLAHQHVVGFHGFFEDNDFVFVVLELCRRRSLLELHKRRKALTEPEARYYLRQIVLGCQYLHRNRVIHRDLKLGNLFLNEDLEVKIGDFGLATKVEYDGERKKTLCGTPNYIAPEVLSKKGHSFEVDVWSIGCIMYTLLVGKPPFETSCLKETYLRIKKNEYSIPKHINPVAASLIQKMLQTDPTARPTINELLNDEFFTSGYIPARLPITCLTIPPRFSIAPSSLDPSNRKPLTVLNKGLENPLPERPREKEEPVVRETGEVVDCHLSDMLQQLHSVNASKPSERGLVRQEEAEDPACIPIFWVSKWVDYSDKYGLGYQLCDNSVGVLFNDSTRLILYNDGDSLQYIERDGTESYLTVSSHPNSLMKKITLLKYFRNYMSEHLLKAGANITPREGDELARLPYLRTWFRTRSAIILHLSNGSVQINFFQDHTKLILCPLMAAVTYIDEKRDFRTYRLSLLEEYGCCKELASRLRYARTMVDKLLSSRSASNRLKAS

Assays:
Test in all cases: number of time points (of 5) at which kinase-Nluc abundance scored as decreased, DMSO-normalised (count); higher = more persistent destabilization
Details in all cases: K562; 2-18 h
[1] = biological target: LMTK2 (UniProt Q8IWU2)
[2] = biological target: LYN (UniProt P07948)
[3] = biological target: MAP2K1 (UniProt Q02750)
[4] = biological target: MAP2K2 (UniProt P36507)
[5] = biological target: MAP4K2 (UniProt Q12851)
[6] = biological target: MAPK1 (UniProt P28482)
[7] = biological target: MAPK4 (UniProt P31152)
[8] = biological target: MAPKAPK2 (UniProt P49137)
[9] = biological target: MKNK1 (UniProt Q9BUB5)
[10] = biological target: NTRK2 (UniProt Q16620)
[11] = biological target: NTRK3 (UniProt Q16288)
[12] = biological target: PAK4 (UniProt O96013)
[13] = biological target: PBK (UniProt Q96KB5)
[14] = biological target: PDGFRB (UniProt P09619)
[15] = biological target: PDK1 (UniProt Q15118)
[16] = biological target: PDPK1 (UniProt O15530)
[17] = biological target: PIK4CA (UniProt P42356)
[18] = biological target: PIK4CB (UniProt Q9UBF8)
[19] = biological target: PLK1 (UniProt P53350)
[20] = biological target: PRKAA1 (UniProt Q13131)

Measured: number of time points

CC(C)CN(CC(=O)N1CCN(CC(OCc2ccc3ccccc3c2)c2ccc(Cl)cc2Cl)CC1)CC(C)C (stereo not given) [LYN-1604 (dihydrochloride)] (2.5 µM)
0: all assays above

CS(=O)(=O)c1ccc(-c2noc(C(F)(F)F)c2-c2ccccc2)cc1 (10 µM)
0: all assays above

CCn1c(-c2nonc2N)nc2cnc(Oc3cccc(NC(=O)c4ccc(OCCN5CCOCC5)cc4)c3)cc21 (10 µM)
3: [10]
0: all other assays above

Fc1ccc(-c2nc(-c3c(F)cccc3F)[nH]c2-c2ccncc2)cc1 (10 µM)
1: [1]
0: all other assays above

Nc1ncc(-c2cccc(N3CCNCC3)c2)cc1C(=O)Nc1ccncc1 [PKC-iota inhibitor 1] (10 µM)
0: all assays above

COCCO[C@@H]1[C@H](O)[C@@H](CO)O[C@H]1n1cnc2c(=O)[nH]c(N)nc21 [2′-O-(2-Methoxyethyl)guanosine] (10 µM)
0: all assays above

COc1ccc(CC(=O)Nc2nc3c(s2)CCc2ccccc2-3)cc1OC (10 µM)
0: all assays above

NCCN1CCN(C/C=C/C(=O)N2CCC[C@@H](n3nc(-c4ccc(Oc5ccccc5)cc4)c4c(N)ncnc43)C2)CC1 [Ibrutinib-MPEA] (10 µM)
0: all assays above

COc1cc(C(N)=O)nc(-c2cccc(C#C[C@]3(O)CCN(C)C3=O)c2)c1 (10 µM)
0: all assays above

CCn1c(=O)c(-c2ccc(-c3cncc(C)n3)cc2Cl)cc2cnc(NCCC3CCN(C)CC3)nc21 (10 µM)
0: all assays above

O=C(Nc1ccc(F)cc1F)[C@H](NC(=S)Nc1cc(C(F)(F)F)cc(C(F)(F)F)c1)c1ccccc1 (2.5 µM)
0: all assays above

CC(C)(C)NC(=O)c1cncn1C1CCN(c2ccc(-c3nnc(C(F)(F)F)o3)cn2)CC1 (10 µM)
1: [1]
0: all other assays above

Cc1cc2cc(Nc3ccnc(Nc4ccc5[nH]c(C)cc5c4)n3)ccc2[nH]1 (2.5 µM)
2: [1]
0: all other assays above

CCOc1ccc(C(=O)Nc2ncc([N+](=O)[O-])s2)cc1 (10 µM)
0: all assays above

Cc1ccc(S(=O)(=O)Nc2ccccc2C=Nc2ccccc2NS(=O)(=O)c2ccc(C)cc2)cc1 (10 µM)
0: all assays above

COc1c(NC(=O)C(=O)c2ccc(OCCN3CCOCC3)c3ccccc23)cc(C(C)(C)C)cc1NS(C)(=O)=O (2.5 µM)
0: all assays above

Nc1nccc(Oc2ccc(NC(=O)c3cn(COP(=O)(O)O)cc(-c4ccc(F)cc4)c3=O)cc2F)c1Cl (10 µM)
3: [14]
1: [16] | [20]
0: all other assays above

Cn1c(=O)c(F)c(Nc2ccc(I)cc2F)c2c(=O)n(C[C@@H](O)CO)cnc21 (10 µM)
2: [16]
1: [9]
0: all other assays above

COCCOc1cnc(Sc2cc(C)c(-c3csc(NC(=O)c4ccncc4)n3)c(C)c2)cn1 [T-1101 (tosylate)] (2.5 µM)
2: [1] | [17]
0: all other assays above

C[C@]1(O)CCC[C@@H]1n1c(=O)c(C(F)F)cc2cnc(NC3CCN(S(C)(=O)=O)CC3)nc21 (10 µM)
0: all assays above

c1cn2cc(-c3ccc4cn[nH]c4c3)nc(Nc3ccc(N4CCOCC4)cc3)c2n1 [Entospletinib] (10 µM)
0: all assays above

Cc1cc(-c2cc(OC(=O)c3ccccc3)ccc2Cl)cc2nnc(Nc3ccc(OCCN4CCCC4)cc3)nc12 (0.5 µM)
0: all assays above

Cc1ccc(-c2c(C(=O)CCl)n(CCCO)c3ncnc(N)c23)cc1 (10 µM)
1: [10] | [16]
2: [1] | [2] | [7]
4: [11]
3: [14]
0: all other assays above

CC1CCc2nc(N)c(C#N)c(-c3cccnc3)c2C1 (stereo not given) (10 µM)
0: all assays above

COc1ccc([C@H]2c3[nH]c4ccc(Cl)cc4c3CCN2C(=O)Oc2ccc(Cl)cc2)cc1 (2.5 µM)
0: all assays above

NCc1ccc(Nc2ncc(F)c(Nc3ccccc3)n2)cc1 (10 µM)
0: all assays above

C=C(C)C(=O)Nc1cccc(-c2ncnc3[nH]cc(C(=O)OCC)c23)c1 (10 µM)
0: all assays above

COc1ncc(-c2nc(N3CCOCC3)nc3c(CN4CCC(C(C)(C)O)CC4)cc(F)cc23)cc1NS(C)(=O)=O [Linperlisib] (10 µM)
0: all assays above

Nc1ncnc2c1c(-c1ccc(Oc3ccccc3)cc1)nn2C1CCNCC1 [N-piperidine Ibrutinib (hydrochloride)] (10 µM)
0: all assays above

Cc1c(NC(=O)OC[C@@H]2COCCN2)cn2ncnc(Nc3ccc4c(cnn4Cc4cccc(F)c4)c3)c12 (10 µM)
0: all assays above

CC(C)CC1(O)CCN(C(=O)c2ccc(NS(=O)(=O)c3cccc4nccnc34)cc2)CC1 (10 µM)
0: all assays above

Cc1noc(C)c1-c1ccc(-c2cc(C(N)=O)c(NC(N)=O)s2)c(O[C@H]2CCNC2)c1 (10 µM)
0: all assays above

Cn1cc(Nc2nccc(N3C[C@H]4CC[C@@H](C3)N4C(=O)[C@@H]3CC3(F)F)n2)cn1 (10 µM)
0: all assays above

Cc1ccc(Oc2nc3cc(-c4ccc5c(ccn5C)c4)c(Cl)cc3[nH]2)cc1C(=O)O (10 µM)
0: all assays above

COc1cc2c[n+](C)c3c4cc5c(cc4ccc3c2cc1OC)OCO5 [Nitidine (chloride)] (2 µM)
0: all assays above

CCn1c(C(=O)N(C2CC2)C2CC2)cc2c3c(ncn3C)c(Nc3cc(C)n(C)n3)nc21 (10 µM)
0: all assays above

CN(CCNc1ccc2ncc(-c3ccc(C(N)=O)cc3)n2n1)C(=O)OC(C)(C)C (10 µM)
0: all assays above

Cc1c(CN2CCN(S(C)(=O)=O)CC2)sc2c(N3CCOCC3)nc(-c3cnc(N)nc3)nc12 (2.5 µM)
0: all assays above

COCCOc1ccc(-c2cn(-c3ccccc3)c3nc[nH]c(=O)c23)cc1 (10 µM)
0: all assays above

CC(C)=CCC[C@](C)(O[C@@H]1O[C@H](CO)[C@@H](O)[C@H](O)[C@H]1O)[C@H]1CC[C@]2(C)[C@@H]1[C@H](O)C[C@@H]1[C@@]3(C)CC[C@H](O)C(C)(C)[C@@H]3[C@@H](O[C@@H]3O[C@H](CO)[C@@H](O)[C@H](O)[C@H]3O[C@@H]3O[C@@H](C)[C@H](O)[C@@H](O)[C@H]3O)C[C@]12C [Ginsenoside Re] (10 µM)
0: all assays above

Compounds listed so far that contain a thiophene ring, fused or not:
Cc1noc(C)c1-c1ccc(-c2cc(C(N)=O)c(NC(N)=O)s2)c(O[C@H]2CCNC2)c1 (10 µM)
0: all assays above

Cc1c(CN2CCN(S(C)(=O)=O)CC2)sc2c(N3CCOCC3)nc(-c3cnc(N)nc3)nc12 (2.5 µM)
0: all assays above

Continuation.

COc1ccc2[nH]cc(/C=C3\C(=O)Nc4ccc(NC(=O)CCN5CCCCC5)cc43)c2c1 (2.5 µM)
0: all assays above

O=C(Nc1cc(Oc2cc(F)c(NC(=O)C3(C(=O)Nc4ccc(F)cc4)CC3)cc2F)ccn1)C1CC1 [Altiratinib] (10 µM)
0: all assays above

Cn1cnc(-c2cc3nccc(Oc4ccc(NC(=S)NC(=O)Cc5ccccc5)cc4F)c3s2)c1 [MGCD-265 analog] (10 µM)
3: [1] | [9] | [10]
1: [2] | [4] | [6] | [11] | [20]
2: [18]
0: all other assays above

OC[C@H]1O[C@@H](Oc2cc3c(O)cc(O)cc3[o+]c2-c2cc(O)c(O)c(O)c2)[C@H](O)[C@@H](O)[C@@H]1O [Delphinidin 3-glucoside (chloride)] (10 µM)
0: all assays above

CO[C@H]1C[C@@H]2CC[C@@H](C)[C@@](O)(O2)C(=O)C(=O)N2CCCC[C@H]2C(=O)O[C@H]([C@H](C)C[C@@H]2CC[C@@H](O)[C@H](OC)C2)CC(=O)[C@H](C)/C=C(\C)[C@@H](O)[C@@H](OC)C(=O)[C@H](C)C[C@H](C)/C=C/C=C/C=C/1C [Rapamycin] (10 µM)
0: all assays above

CCN(CC)c1ccc2cc(C(=O)N3CCN(C(=O)C4=Cc5c(Br)cccc5S4(=O)=O)CC3)c(=O)oc2c1 (2 µM)
0: all assays above

CC(=NNC(=O)c1ccc(C)c(Br)c1)c1ccc(O)cc1O [mTOR inhibitor-1] (2.5 µM)
0: all assays above
